For experiment [1], the target named is Halo-DOCK11 (UniProt Q5JSL3). Put plainly: co-IP; HepG2-NTCP-C4 cells transfected with Halo-DOCK11 plasmid, with or without HBV infection (virions from HepAD38 cells); lysate in 25 mM Tris, 150 mM NaCl, 1 mM EDTA, 1% NP-40, 5% glycerol, pH 7.4; Halo-Trap magnetic particles M270, 4 °C, 1 h; immunoblot for Halo, β-catenin, HBc. (In general: A western blot detects proteins with antibodies after separation by electrophoresis.)

Sequences of proteins named here, by UniProt entry; tags and fusion partners are left off.
UniProt Q5JSL3: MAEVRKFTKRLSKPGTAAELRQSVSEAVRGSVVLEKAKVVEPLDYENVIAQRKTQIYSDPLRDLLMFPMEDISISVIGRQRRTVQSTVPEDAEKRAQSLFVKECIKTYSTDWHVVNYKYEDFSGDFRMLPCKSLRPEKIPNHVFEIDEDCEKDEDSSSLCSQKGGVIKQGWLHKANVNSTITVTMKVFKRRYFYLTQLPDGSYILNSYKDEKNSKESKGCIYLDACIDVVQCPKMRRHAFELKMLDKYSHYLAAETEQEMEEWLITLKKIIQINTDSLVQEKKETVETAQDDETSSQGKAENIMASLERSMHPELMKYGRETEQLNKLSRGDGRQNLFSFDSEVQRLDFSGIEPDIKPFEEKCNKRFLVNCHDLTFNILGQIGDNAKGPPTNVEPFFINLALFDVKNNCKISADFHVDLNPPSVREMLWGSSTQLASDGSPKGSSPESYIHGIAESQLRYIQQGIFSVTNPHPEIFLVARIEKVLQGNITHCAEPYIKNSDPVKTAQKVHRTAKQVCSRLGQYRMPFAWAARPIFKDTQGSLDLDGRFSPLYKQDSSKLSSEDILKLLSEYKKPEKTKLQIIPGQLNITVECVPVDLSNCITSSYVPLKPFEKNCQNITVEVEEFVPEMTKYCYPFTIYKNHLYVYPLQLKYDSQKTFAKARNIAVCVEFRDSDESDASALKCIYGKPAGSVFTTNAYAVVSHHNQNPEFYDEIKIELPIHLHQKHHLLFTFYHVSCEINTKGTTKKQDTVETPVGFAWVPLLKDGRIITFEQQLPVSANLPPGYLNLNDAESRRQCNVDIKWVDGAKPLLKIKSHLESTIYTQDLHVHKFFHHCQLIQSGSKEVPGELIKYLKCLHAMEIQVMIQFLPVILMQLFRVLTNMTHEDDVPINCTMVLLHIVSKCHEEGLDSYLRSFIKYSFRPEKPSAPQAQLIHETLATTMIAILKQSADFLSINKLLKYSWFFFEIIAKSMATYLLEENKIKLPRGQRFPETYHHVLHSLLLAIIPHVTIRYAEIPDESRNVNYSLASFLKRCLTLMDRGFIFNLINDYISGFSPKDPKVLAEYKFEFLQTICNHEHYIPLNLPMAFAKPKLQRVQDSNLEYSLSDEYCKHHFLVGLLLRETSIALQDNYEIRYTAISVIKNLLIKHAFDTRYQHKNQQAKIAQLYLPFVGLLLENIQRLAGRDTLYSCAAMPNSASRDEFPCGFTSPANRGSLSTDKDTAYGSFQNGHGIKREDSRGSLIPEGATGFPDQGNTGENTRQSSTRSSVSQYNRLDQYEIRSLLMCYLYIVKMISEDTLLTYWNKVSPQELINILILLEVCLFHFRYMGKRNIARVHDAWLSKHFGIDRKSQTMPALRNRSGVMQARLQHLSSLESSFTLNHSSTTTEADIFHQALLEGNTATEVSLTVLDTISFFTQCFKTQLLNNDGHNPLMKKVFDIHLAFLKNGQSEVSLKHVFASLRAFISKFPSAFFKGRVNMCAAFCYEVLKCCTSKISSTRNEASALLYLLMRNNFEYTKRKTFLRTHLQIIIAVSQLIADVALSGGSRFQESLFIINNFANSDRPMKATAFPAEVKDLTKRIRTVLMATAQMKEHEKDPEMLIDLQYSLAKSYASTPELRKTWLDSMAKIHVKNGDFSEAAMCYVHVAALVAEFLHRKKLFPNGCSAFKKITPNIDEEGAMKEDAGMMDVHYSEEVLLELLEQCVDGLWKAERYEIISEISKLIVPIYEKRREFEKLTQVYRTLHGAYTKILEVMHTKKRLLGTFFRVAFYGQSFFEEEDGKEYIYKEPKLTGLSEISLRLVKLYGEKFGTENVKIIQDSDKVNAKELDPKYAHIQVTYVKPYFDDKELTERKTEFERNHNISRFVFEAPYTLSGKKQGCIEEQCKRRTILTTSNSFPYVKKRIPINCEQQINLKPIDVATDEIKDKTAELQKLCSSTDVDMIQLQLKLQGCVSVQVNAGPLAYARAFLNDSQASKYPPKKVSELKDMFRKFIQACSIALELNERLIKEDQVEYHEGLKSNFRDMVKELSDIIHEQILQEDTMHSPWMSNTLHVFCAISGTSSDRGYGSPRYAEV
UniProt P03146: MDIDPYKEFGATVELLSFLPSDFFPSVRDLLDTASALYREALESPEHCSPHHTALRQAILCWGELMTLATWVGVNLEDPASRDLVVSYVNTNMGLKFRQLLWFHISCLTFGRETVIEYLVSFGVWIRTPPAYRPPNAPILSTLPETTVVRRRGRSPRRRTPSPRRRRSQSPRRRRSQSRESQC
UniProt P35222: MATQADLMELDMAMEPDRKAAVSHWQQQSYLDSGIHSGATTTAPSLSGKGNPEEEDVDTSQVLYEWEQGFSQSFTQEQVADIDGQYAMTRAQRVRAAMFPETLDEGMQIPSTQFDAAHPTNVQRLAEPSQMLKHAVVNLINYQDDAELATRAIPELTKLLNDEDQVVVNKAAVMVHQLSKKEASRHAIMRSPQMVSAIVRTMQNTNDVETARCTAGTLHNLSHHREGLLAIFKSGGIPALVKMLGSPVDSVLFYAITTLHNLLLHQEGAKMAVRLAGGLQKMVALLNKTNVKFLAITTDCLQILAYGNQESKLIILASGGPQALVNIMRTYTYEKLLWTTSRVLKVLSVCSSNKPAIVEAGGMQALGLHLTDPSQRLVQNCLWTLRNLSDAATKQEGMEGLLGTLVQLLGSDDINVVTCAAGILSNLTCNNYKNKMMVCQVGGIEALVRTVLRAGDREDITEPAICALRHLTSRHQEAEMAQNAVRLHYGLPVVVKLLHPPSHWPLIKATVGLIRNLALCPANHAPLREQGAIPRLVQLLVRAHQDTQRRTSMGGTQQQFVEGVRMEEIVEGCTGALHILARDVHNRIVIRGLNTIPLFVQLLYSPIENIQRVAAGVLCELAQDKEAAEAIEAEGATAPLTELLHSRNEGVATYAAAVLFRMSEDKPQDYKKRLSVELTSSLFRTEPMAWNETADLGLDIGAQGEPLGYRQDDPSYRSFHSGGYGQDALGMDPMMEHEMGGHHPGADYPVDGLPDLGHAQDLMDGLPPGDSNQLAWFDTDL

The target in experiment [2] is dedicator of cytokinesis 11 (DOCK11), endogenous (human (endogenous in PXB cells and HepG2.2.15 cells)) (UniProt Q5JSL3). Put plainly: co-IP; whole-cell extracts of HBV-infected PXB cells or of HepG2.2.15 cells incubated with 10 μg anti-DOCK11 antibody (A301-638A, Bethyl) overnight at 4 °C, Protein G magnetic beads 3 h at 4 °C, four washes (Universal Magnetic CO-IP kit); Western blot for β-catenin.

These are yes or no findings as the source states them, for the method shown. Binding seen in cells or lysates may run through a third protein. Some results given as binding are weak or reduced against the parent protein; the word gives no strength.

“HBV capsid protein (HBc) (from UniProt P03146 1-183)”: the binding result in experiment [1] was “binds”. In the case of “β-catenin, endogenous in HBV-infected PXB cells (from UniProt P35222 1-781)”, in experiment [2], the binding entry is given as “binds”.

(Values after PMC12295781.)
